Laboratory results published in patent US20040049072A1, “RXR modulators with improved pharmacologic profile” (priority 1999, published 2004).
At least one structure is not confirmed: it was looked up by name or label, or the drawing left a doubt.

Molecular target: T1, RXRα:PPARγ heterodimer (Homo sapiens, UniProt P19793)
T1 construct: expressed in transfected cells; host or cells: CV-1 cells
T1 sequence (P19793 1-462): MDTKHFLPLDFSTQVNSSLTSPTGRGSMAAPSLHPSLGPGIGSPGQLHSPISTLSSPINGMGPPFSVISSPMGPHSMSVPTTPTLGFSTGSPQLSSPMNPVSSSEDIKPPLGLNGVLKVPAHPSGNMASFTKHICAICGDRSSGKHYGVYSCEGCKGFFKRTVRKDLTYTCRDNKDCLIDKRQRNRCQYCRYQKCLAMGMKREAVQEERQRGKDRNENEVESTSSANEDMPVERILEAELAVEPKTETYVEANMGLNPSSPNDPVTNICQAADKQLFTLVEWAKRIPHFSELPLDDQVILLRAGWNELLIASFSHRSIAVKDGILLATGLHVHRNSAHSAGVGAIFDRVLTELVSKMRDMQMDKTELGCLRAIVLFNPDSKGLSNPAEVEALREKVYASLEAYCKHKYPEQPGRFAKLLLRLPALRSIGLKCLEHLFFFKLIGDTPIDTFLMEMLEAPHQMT
T1 sequence (P37231 1-505 partner): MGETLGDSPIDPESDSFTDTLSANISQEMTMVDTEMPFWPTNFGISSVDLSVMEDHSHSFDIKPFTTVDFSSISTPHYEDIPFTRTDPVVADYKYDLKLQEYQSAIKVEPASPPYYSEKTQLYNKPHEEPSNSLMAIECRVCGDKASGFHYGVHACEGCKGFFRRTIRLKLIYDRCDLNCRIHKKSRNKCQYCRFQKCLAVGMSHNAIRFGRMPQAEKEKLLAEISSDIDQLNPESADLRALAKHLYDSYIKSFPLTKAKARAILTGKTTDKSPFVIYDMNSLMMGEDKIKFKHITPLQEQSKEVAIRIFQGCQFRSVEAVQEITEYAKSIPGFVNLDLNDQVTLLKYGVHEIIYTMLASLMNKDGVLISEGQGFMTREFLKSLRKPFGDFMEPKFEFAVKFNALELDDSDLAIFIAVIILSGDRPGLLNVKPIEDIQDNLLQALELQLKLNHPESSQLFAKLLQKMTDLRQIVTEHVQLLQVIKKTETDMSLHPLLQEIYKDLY
Test: RXR:PPARγ heterodimer co-transfection assay in CV-1 cells
Type: cell-based
Description: For determination of agonist activity in the context of the RXR:RAR heterodimer or the RXR:PPARγ heterodimer, media containing compounds of the present invention in concentrations ranging from 10^−10 to 10^−5 M were added to the cells.
Compounds of the present invention were also tested for the ability to synergize with a PPARγ agonist in the context of an RXR heterodimer. […] Efficacy of the compounds of the present invention in the agonist and synergy assays was calculated as the maximum response obtained over the range of the dose response curve relative to the maximum response obtained by the reference agonist. Antagonist efficacy was determined as a function (%) of maximal inhibition.
To examine the effects of the compounds of the present invention on the transcriptional properties of the RXR:PPARγ, a heterodimer cotransfection assay as described above was employed.

Compound: CN(CCOc1ccc(CC2SC(=O)NC2=O)cc1)c1ccccn1 (stereo not shown) [BRL 49653, reference compound]
- activity on the RXRα:PPARγ heterodimer, tested alone: induce transactivation
